Experimental data published in US20100029613A1, “TREATMENT AND PREVENTION OF EPILEPSY” (University of Rochester, priority 2004, published 2010).
For at least one compound, name, drawing or mass did not settle the structure.

Legend:
cultured astrocytes = experiment: Ca^2+ imaging in cultured astrocytes; assay type: cell-based, rat
[1] = system: cultured rat cortical astrocytes; experiment: Hypotonicity (swelling)-induced glutamate release, enzymatic fluorescence assay; assay type: cell-based
[2] = system: glutamate-permeable channel in cultured astrocytes; experiment: Whole-cell recording of ATP-induced current in cultured astrocytes; assay type: cell-based, rat

SMILES	Ca^2+ signaling in cultured astrocytes (cultured astrocytes)	effect on glutamate release evoked by hypoosmotic challenge [1]	effect on ATP-induced current [2]
CN1CCc2cc3c(cc2[C@H]1[C@@H]1OC(=O)c2c1ccc1c2OCO1)OCO3 [bicuculline]	only weakly induced Ca^2+ signaling		
Cc1cc2c(C(C)C)c(O)c(O)c(C=O)c2c(O)c1-c1c(C)cc2c(C(C)C)c(O)c(O)c(C=O)c2c1O [gossypol]		decreased	inhibited ATP-induced current
